Laboratory results: publication doi:10.1101/2021.09.24.461724
These are yes or no findings as the source states them, for the method shown. Binding seen in cells or lysates may run through a third protein. Some binding calls cover weakened binding; strength is not graded here. Where a sequence is shown, tags or fusion partners need not be part of it.

Target: T1, LIP1 full-length ORF fused upstream of the N-terminal region of YFP (LIP1-N) (Arabidopsis thaliana) (UniProt Q9ZWT1)
T1 sequence: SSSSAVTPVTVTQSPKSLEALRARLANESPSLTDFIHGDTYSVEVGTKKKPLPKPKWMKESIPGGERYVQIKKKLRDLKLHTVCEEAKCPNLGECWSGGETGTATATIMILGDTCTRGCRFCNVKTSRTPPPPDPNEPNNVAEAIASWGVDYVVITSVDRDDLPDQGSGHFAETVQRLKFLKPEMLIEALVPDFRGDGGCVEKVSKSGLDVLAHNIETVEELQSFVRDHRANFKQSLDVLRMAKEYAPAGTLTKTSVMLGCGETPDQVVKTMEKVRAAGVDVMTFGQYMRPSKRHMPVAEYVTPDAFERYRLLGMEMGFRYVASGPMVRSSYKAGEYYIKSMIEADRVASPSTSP
Assay: split reporter

B1: NFU4 full-length ORF fused upstream of the C-terminal region of YFP (NFU4-C) (protein, UniProt Q9LIG6 49-283)
chain: LNSRTKDSALPSLNSSLLAQKWNFLGGQRRTMFIQTQSTPNPSSLMFYPGKPVMEVGSADFPNVRSALGSPLAKSIYSIDGVVRVFFGSDFVTVTKSDDVSWDILKPEIFAAVMDFYSSGQPLFLDSQAAAAKDTAISEDDSETVAMIKELLETRIRPAVQDDGGDIEYCGFDPESGIVKLRMQGACSGCPSSSVTLKSGIENMLMHYVSEVKGVEQEFDGEDEEGTLSGEMRVE
In the case of B1, the binding is reported as “binds”.

B2: NFU5 full-length ORF fused upstream of the C-terminal region of YFP (NFU5-C) (protein, UniProt Q9C8J2 62-275)
chain: SSFPFNWIEQRRTMFIQTQSTPNPSSLMFSPGKPVMEIGSADFPNSRSAMSSPLAKAIFAIDGVVRVFYGSDFVTVTKSDDVTWDILKPDIFAVVMDFYSSGQPLFLDSQATAAKDTAIHEDDSETVAMIKELLETRIRPSVQDDGGDIEYCGFDTETGIVKLRMQGACSGCPSSSVTLKSGIENMLMHYVSEVKGVEQEFDGEEEGTSSGPME
For B2, the binding was “binds”.
